Measured values: paper PMC9182532, “The RHIM of the Immune Adaptor Protein TRIF Forms Hybrid Amyloids with Other Necroptosis-Associated Proteins” (Molecules, 2022)
These are yes or no findings as the source states them, for the method shown.

Target: mCherry-RIPK1_(497–583) (human) (UniProt Q13546)
Assay: SDS-agarose gel electrophoresis (SDS-AGE); 5 µM alone or equimolar mixtures, kept in 8 M urea (monomer control) or dialysed overnight against 100 mM NaH2PO4, 20 mM Tris, 0.5 mM DTT, pH 8.0, with or without 2% SDS for 10 min; 1% agarose gel with 0.1% SDS; YPet and mCherry fluorescence imaged and overlaid; both purified

B1: mCherry-RIPK1_(497–583) (domain or fragment, human, UniProt Q13546 497-583, looked up)
chain: MPSLHNIPVPETNYLGNTPTMPFSSLPPTDESIKYTIYNSTGIQIGAYNYMEIGGTSSSLLDSTNTNFKEEPAAKYQAIFDNTTSLT
notes: also called RIPK1 RHIM construct; source: E. coli BL21(DE3), solubilised in 8 M urea, purified (Ni-NTA); not shown: mCherry, N-terminal, kept
For B1, the binding was “no binding (condition: with 2% SDS)”.
